Data taken from patent publication US6495065B1, “Nitrosamine-inhibiting compositions for shortstopping of free radical emulsion polymerizations” (Atofina Chemicals, Inc., priority 1999, dated 2002).

What was measured:
[1] = Nitrosamines in SBR latex (unreacted monomers removed), gas chromatography with thermal energy analyzer
[2] = Nitrosamines in SBR rubber (coagulated, dried, rolled), gas chromatography with thermal energy analyzer; details: Table 1; shortstopper 400 ppm NiPHA; inhibitor 1000 ppm in NiPHA (~400 ppb in latex)
[3] = Table 2, shortstopper 350 ppm DEHA, inhibitor 1250 ppm in shortstopper (~450 ppb in latex), DEA ~450 ppb

Compound	Nitrosamine in latex ([1]; Table 1, shortstopper 400 ppm NiPHA, inhibitor 1000 ppm in NiPHA (0 for NiPHA alone), ND = none detected, limit of detection 1 ppb)	Nitrosamine in latex: NDEA (N-nitrosodiethylamine) [1, 3] [ppb]	Nitrosamine in latex: NDMA [1, 3] [ppb]	Nitrosamine in rubber: NDBA (N-nitrosodibutylamine) [2] [ppb]
CC(C)NO [NiPHA, N-isopropylhydroxylamine, reference compound]	does not yield nitrosamines			
CCN [MEA, monoethylamine]		2	1	4
